The other results are listed elsewhere or left out.

Amino acid sequences for entries named in this document (tags omitted).
UniProt Q0JBA9, entry or part of it: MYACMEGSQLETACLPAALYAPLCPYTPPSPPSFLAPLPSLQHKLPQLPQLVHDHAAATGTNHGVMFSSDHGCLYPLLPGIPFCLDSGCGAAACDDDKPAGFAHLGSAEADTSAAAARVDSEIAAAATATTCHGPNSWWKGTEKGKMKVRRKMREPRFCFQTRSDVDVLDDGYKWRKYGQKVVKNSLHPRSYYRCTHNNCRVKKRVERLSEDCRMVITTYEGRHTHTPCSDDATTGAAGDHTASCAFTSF

The test deals with OsWRKY34 (Oryza sativa, UniProt Q0JBA9 1-250). The test is described as follows: protein-binding microarray (RPBM); PBS, 2% BSA, 51.3 ng/ul salmon testes DNA, 50 uM zinc acetate, 200 nM TF, 25 C, 1 h; high values mean tight binding. Particulars: protein: recombinant; tags: N-terminal polyhistidine and DsRed monomer fusion (pET32a); label: CyDye5-dUTP incorporated in the synthesized complementary strand; 3' TTTTT single-stranded linker to array surface; dsDNA, one strand shown. In a few lines: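 Binding signal here means per-feature fluorescence intensity in arbitrary units. The values were read on an Axon 4000B scanner after a custom Agilent array, double-stranded by primer extension with Cy5-dUTP, was incubated with 200 nM protein at 25 °C for 1 h in PBS with 2% BSA, salmon testes DNA and 50 µM zinc acetate, then washed. The proteins were transcription factors with an N-terminal polyhistidine tag and DsRed, expressed in E. coli BL21-CodonPlus and purified on Ni–NTA.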
With “CGCTCATCCGCCACCACGCGCTTCTTCTCGTTCTCCTCCACGGAGTCACCTAGTGCAG”, the binding signal is 9320 fluorescence intensity (a.u.).

For the sequence “CATCACATCAAACTTTTATACTCACATAAACTTCCAACTTCGGAGTCACCTAGTGCAG”, the binding signal is 8460 fluorescence intensity (a.u.).

“GTCATTTTCGCCGCCCTCTGAGAGGGCGATTTTTAAAAATCGGAGTCACCTAGTGCAG”: the binding signal was 10100 fluorescence intensity (a.u.).

For the sequence “TCTGGCAGCTGTAAATGATTGGTAGCAATGTGTATCTTTACGGAGTCACCTAGTGCAG”, the binding signal is 8820 fluorescence intensity (a.u.).

Take “GGGTGGTGATTCTTCTTGGCGCAGCCGGCCAGGTGAAAACCGGAGTCACCTAGTGCAG”: the binding signal was 10200 fluorescence intensity (a.u.).

In the case of “CCTGTATTATGCTTATAATCGATTTTTTTTTTACATTTTGCGGAGTCACCTAGTGCAG”, the binding signal is 9440 fluorescence intensity (a.u.).

In the case of “GCCTCCACCAGCTCTCTCACCCCAGAATTCCCAAATCCGCCGGAGTCACCTAGTGCAG”, the binding signal is 12200 fluorescence intensity (a.u.).

For “CATTTCTTCTGTATACGATTGAATCGGGTTATGACAAGCTCGGAGTCACCTAGTGCAG”, the binding signal is 8410 fluorescence intensity (a.u.).

Turning to “ATCACCGCCATCGCCGCCGGGTCGCACAACTTCACCTTCGCGGAGTCACCTAGTGCAG”, the binding signal is 8360 fluorescence intensity (a.u.).

For the sequence “AATCTCCCACCACACATTGCTTTCTCGAAATCTCTCCGATCGGAGTCACCTAGTGCAG”, the binding signal is 8990 fluorescence intensity (a.u.).

With “TATGCGTTGTCAATGACTGTATATTGATTGATTGGTTATTCGGAGTCACCTAGTGCAG”, the binding signal is 9420 fluorescence intensity (a.u.).

For “TGGCTTGGTCCGCTAGTTCCTAACATCATGACAGTATTTTCGGAGTCACCTAGTGCAG”, the binding signal is 8280 fluorescence intensity (a.u.).

In the case of “CAACCTCTCGCCTCCAGTTGCATTTCCCATTTCGATTCGACGGAGTCACCTAGTGCAG”, the binding signal was 9350 fluorescence intensity (a.u.).

As to “CGCACACTCAGGACATGTTATCTGCTACCAGCCTGCATTCCGGAGTCACCTAGTGCAG”, the binding signal is 8310 fluorescence intensity (a.u.).

“TCCGCCAACCGTTCGATCTCGGCCCAACCTCGCGCCTCTCCGGAGTCACCTAGTGCAG”: the binding signal is 10900 fluorescence intensity (a.u.).

As for “CACTTGCACTTCGTCAGCTAGCTTCATTGCTTCATTCATTCGGAGTCACCTAGTGCAG”, the binding signal is 9910 fluorescence intensity (a.u.).

Consider “AGAGAATGTTGTGTTATTTGTTGCACGCGTATTTCAAATTCGGAGTCACCTAGTGCAG”, for which the binding signal is 10400 fluorescence intensity (a.u.).

Consider “GCTTCTATATGTTTAGATTGGTGCCAAATTTTACCAACACCGGAGTCACCTAGTGCAG”, for which the binding signal is 9410 fluorescence intensity (a.u.).

In the case of “CTATCAATTCGCTCTATTATGTCGCTCAATTCTCTCTCGCCGGAGTCACCTAGTGCAG”, the binding signal is 8650 fluorescence intensity (a.u.).

On to “GTCGCCGCCGCCGCCGCCATGCTCTCGCTCGCCGCCTCCTCGGAGTCACCTAGTGCAG”, for which the binding signal was 11300 fluorescence intensity (a.u.).

As for “CCCGTTGCGTCGTGCTCCCGCAGCCTCGCGAGTCGCGACGCGGAGTCACCTAGTGCAG”, the binding signal was 11400 fluorescence intensity (a.u.).

With “CTAGCTTCCTCTGACCTCTACCACTTTGCTGCTATATAAACGGAGTCACCTAGTGCAG”, the binding signal is 10100 fluorescence intensity (a.u.).

For the sequence “CTTGTCCCGAATTTACTCTATTTCTTTCATCCCACCATTTCGGAGTCACCTAGTGCAG”, the binding signal is 10300 fluorescence intensity (a.u.).

“GACTAGAGGTGTTTTTTTTTTTTTGAAACCTTCAACTTTCCGGAGTCACCTAGTGCAG”: the binding signal is 10300 fluorescence intensity (a.u.).

Take “ACCAGACTGGGTCAACGGTTGAACCGGAAAAAACCGGAACCGGAGTCACCTAGTGCAG”: the binding signal was 9560 fluorescence intensity (a.u.).

On to “TTTACTGCATCCTCAGCTAATTAGTGCTATTTACACATATCGGAGTCACCTAGTGCAG”, for which the binding signal is 9220 fluorescence intensity (a.u.).

As for “TACGCGGGGATAATCGATCACTACCAACTCTCATCTCAACCGGAGTCACCTAGTGCAG”, the binding signal was 8980 fluorescence intensity (a.u.).

With “TGTCTAGCTGCTCCGACCAGTCAACCGTTGAACGTTGACTCGGAGTCACCTAGTGCAG”, the binding signal was 14700 fluorescence intensity (a.u.).

For “TGTATAGTTTAGGGGTGAAGATTTCTGGTTTTGTGGTTAACGGAGTCACCTAGTGCAG”, the binding signal was 11500 fluorescence intensity (a.u.).

As for “GGTGAGTAGTTGTTCTTGCTGCTGTGGTTTCTTGATACTTCGGAGTCACCTAGTGCAG”, the binding signal is 16300 fluorescence intensity (a.u.).

Consider “CTTGCTCTTGACTCCGCTCTACCCGCCGCCGCCGCCCAAACGGAGTCACCTAGTGCAG”, for which the binding signal is 10100 fluorescence intensity (a.u.).

“AATCTGCCTTTCATCTTTCTGTTCTTGGAGATTCATGGTTCGGAGTCACCTAGTGCAG”: the binding signal is 8070 fluorescence intensity (a.u.).

For the sequence “CACCTCAACTTAGAACATACTTCACCTTGCTCCTCTCTCTCGGAGTCACCTAGTGCAG”, the binding signal was 8130 fluorescence intensity (a.u.).

As for “GAATACTTAGAGTGGTGGAAAGGTAATGTTGTTTTTTCGCCGGAGTCACCTAGTGCAG”, the binding signal was 9870 fluorescence intensity (a.u.).

Take “CCTGTTGATTGGTTAGCCCAGCCCATGATGTAGCCCATGACGGAGTCACCTAGTGCAG”: the binding signal was 8570 fluorescence intensity (a.u.).

With “CCTTTTGGTACCTAGATGCTTTTTCGTCTATTTTATTACTCGGAGTCACCTAGTGCAG”, the binding signal was 8430 fluorescence intensity (a.u.).

As to “TAGATCAGATATTCAGATACTGTAGTTTCAAACTTTCAATCGGAGTCACCTAGTGCAG”, the binding signal is 8030 fluorescence intensity (a.u.).

In the case of “ACCACTCCTGCATGACATTAGGTAGCAGCATCTTCTTGTTCGGAGTCACCTAGTGCAG”, the binding signal is 8130 fluorescence intensity (a.u.).

For “TCCTCCATTAATATGGTGCATATCCAATTTGATCATATCTCGGAGTCACCTAGTGCAG”, the binding signal was 8110 fluorescence intensity (a.u.).

For the sequence “TCTTCTCCGTTTCCACCCCATTTCGCTTCCCGATCACATCCGGAGTCACCTAGTGCAG”, the binding signal was 10200 fluorescence intensity (a.u.).

In the case of “CTCGACTCGAGTAGTCCAGTCCACATGTGTTTCATCTTTGCGGAGTCACCTAGTGCAG”, the binding signal was 10100 fluorescence intensity (a.u.).

Take “GTGCTTTGTACTGATCTGATTGCCTTCGCCTCATCATAATCGGAGTCACCTAGTGCAG”: the binding signal is 8800 fluorescence intensity (a.u.).

These data come from article PMC7819943, “Rice protein-binding microarrays: a tool to detect cis-acting elements near promoter regions in rice”.
